Measured values as given in PMC12099056, “Targeting the Exonic Circular OGT RNA/O-GlcNAc Transferase/Forkhead Box C1 Axis Inhibits Asparagine- and Alanine-Mediated Ferroptosis Repression in Neuroblastoma Progression” (Research, 2025).
No constants are given. Whether binding was seen depends on the method and setting. In cells and extracts the contact can be indirect. Here binding means that the protein was enriched with, or labelled near, the bait; the list need not be complete.

Amino acid sequences for entries named in this document (tags omitted).
UniProt Q12948: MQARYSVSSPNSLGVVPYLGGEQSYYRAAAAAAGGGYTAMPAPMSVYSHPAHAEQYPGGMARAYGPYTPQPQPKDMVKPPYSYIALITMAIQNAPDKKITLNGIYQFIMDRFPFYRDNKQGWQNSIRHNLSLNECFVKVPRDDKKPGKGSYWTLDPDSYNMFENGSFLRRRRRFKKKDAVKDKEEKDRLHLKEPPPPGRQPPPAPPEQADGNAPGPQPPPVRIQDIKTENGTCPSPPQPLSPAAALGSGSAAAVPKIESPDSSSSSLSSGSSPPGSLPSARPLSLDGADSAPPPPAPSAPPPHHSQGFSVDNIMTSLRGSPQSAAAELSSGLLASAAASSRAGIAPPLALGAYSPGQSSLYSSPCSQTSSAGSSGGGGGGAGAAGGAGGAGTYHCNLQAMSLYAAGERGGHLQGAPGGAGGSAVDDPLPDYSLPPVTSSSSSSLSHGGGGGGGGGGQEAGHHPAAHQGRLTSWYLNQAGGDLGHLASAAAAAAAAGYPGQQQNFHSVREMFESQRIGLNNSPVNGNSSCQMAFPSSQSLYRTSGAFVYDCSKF

Molecular target: forkhead box C1 (human (endogenous in IMR-32 and SK-N-BE(2))) (UniProt Q12948)
Assay: affinity purification with mass spectrometry; co-IP with FOXC1 antibody from IMR-32 cell lysates, Protein A/G magnetic beads, mass spectrometry

binding: binds
B1: O-GlcNAc transferase (enzyme, UniProt O15294 1-1046)
chain: MASSVGNVADSTEPTKRMLSFQGLAELAHREYQAGDFEAAERHCMQLWRQEPDNTGVLLLLSSIHFQCRRLDRSAHFSTLAIKQNPLLAEAYSNLGNVYKERGQLQEAIEHYRHALRLKPDFIDGYINLAAALVAAGDMEGAVQAYVSALQYNPDLYCVRSDLGNLLKALGRLEEAKACYLKAIETQPNFAVAWSNLGCVFNAQGEIWLAIHHFEKAVTLDPNFLDAYINLGNVLKEARIFDRAVAAYLRALSLSPNHAVVHGNLACVYYEQGLIDLAIDTYRRAIELQPHFPDAYCNLANALKEKGSVAEAEDCYNTALRLCPTHADSLNNLANIKREQGNIEEAVRLYRKALEVFPEFAAAHSNLASVLQQQGKLQEALMHYKEAIRISPTFADAYSNMGNTLKEMQDVQGALQCYTRAIQINPAFADAHSNLASIHKDSGNIPEAIASYRTALKLKPDFPDAYCNLAHCLQIVCDWTDYDERMKKLVSIVADQLEKNRLPSVHPHHSMLYPLSHGFRKAIAERHGNLCLDKINVLHKPPYEHPKDLKLSDGRLRVGYVSSDFGNHPTSHLMQSIPGMHNPDKFEVFCYALSPDDGTNFRVKVMAEANHFIDLSQIPCNGKAADRIHQDGIHILVNMNGYTKGARNELFALRPAPIQAMWLGYPGTSGALFMDYIITDQETSPAEVAEQYSEKLAYMPHTFFIGDHANMFPHLKKKAVIDFKSNGHIYDNRIVLNGIDLKAFLDSLPDVKIVKMKCPDGGDNADSSNTALNMPVIPMNTIAEAVIEMINRGQIQITINGFSISNGLATTQINNKAATGEEVPRTIIVTTRSQYGLPEDAIVYCNFNQLYKIDPSTLQMWANILKRVPNSVLWLLRFPAVGEPNIQQYAQNMGLPQNRIIFSPVAPKEEHVRRGQLADVCLDTPLCNGHTTGMDVLWAGTPMVTMPGETLASRVAASQLTCLGCLELIAKNRQEYEDIAVKLGTDLEYLKKVRGKVWKQRISSPLFNTKQYTMELERLYLQMWEHYAAGNKPDHMIKPVEVTESA
